Source: patent publication US9822373B2, “Mutant cells for protein secretion and lignocellulose degradation” (The Regents of the University of California, priority 2011, dated 2017)
Some results were stated once for a whole list of compounds, not compound by compound.

Test system: cellobiohydrolase I (cbh-1, NCU07340)
Assay: Quantitative RT-PCR of cbh-1 expression after 4 h induction with a carbon source
Format: cell-based, Neurospora crassa
Settings: Δ3βG strain; Example 3 (0.2% cellobiose, 4 hrs)
Experimental: Strains were inoculated at an OD595 equal to 0.05 in 50 ml Vogel's salts with 2% (wt/vol) sucrose in a 250 ml Erlenmeyer flask and grown under constant light at 200 rpm for 16 hours. The biomass was then spun at 4000 rpm for 10 minutes and washed in Vogel's twice to remove any excess sucrose. The biomass was then added to a new 50 ml culture with 2% (wt/vol) sucrose, cellobiose (Sigma) or Avicel® PH 101 (Avicel®). Cultures were induced for 4 hours under constant light at 200 rpm. The culture biomass was then harvested by filtration over a Whatman glass microfiber filter (GF/F) on a Buchner funnel and washed with 50 ml Vogel's, biomass was flash frozen in liquid Nitrogen and stored at −80° C. […]
Quantitative RT-PCR was performed using the EXPRESS One-Step SYBR GreenER Kit (Invitrogen) and the StepOnePlus Real-Time PCR System (Applied Biosystems). […] Data Analysis was performed by the StepOne Software (Applied Biosystems) using Relative Quantitation/Comparative CT (ΔΔCT). […]
Conidia from strains were inoculated at an OD595 equal to 0.05 in 50 ml Vogel's salts (45) with 2% w/v sucrose in a 250 ml Erlenmeyer flask and grown under constant light at 200 rpm for 16 hours. […] Three independent biological duplicates (flasks) were evaluated for each time point. […]

O=C[C@H](O)[C@@H](O)[C@H](O[C@@H]1O[C@H](CO)[C@@H](O)[C@H](O)[C@H]1O)[C@H](O)CO [cellobiose]
induction of cbh-1: ≥ 20,000 fold
